Measured data: PubChem BioAssay AID1224826 (NIAID, 2016)
Assay: 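Regulators of Tlr4 signalling leading to Tnf-alpha expression in macrophages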 (primary screen). System: RAW264.7 G9 macrophages from mouse bearing reporters for p65 (GFP) and the Tnf promoter (mCherry). Reagent: siRNA pool against mouse genes, 100 nM. Duration: 16 h of LPS stimulation, after 2 days of siRNA transfection. Treatment: bacterial lipopolysaccharide (Salmonella minnesota R595), 10 ng/ml. Read-out: 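Imaged Tnf reporter mCherry in nuclei, minus background, normalised per plate to the median and expressed as robust z-scores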. Direction: Tnf reporter robust z-score: higher = stronger Tnf promoter reporter signal after LPS. Call rule: 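Called active when robust z-score is at most -1.3, matching the median of the Tlr4 knock-down control, or over 3; control wells and wells with under 50 cells never active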. Calls: active = Tnf reporter clearly lowered or raised; inactive = no clear change in Tnf reporter.
The deposit covers about 17,000 reagents; below is a part drawn at random. Of all reagents, about 1,110 (6.6%) were called active. 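Active means lowered or raised reporter signal; replicate intensities are raw and not normalised per plate.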 Not all columns of the deposit are shown.

E130016E03RIK | Tnf reporter robust z-score: -0.93; fewer than 50 cells in well: enough cells in well; Call: inactive
Bid | Tnf reporter robust z-score: -0.58; fewer than 50 cells in well: enough cells in well; Call: inactive
Pcdhb10 | Tnf reporter robust z-score: -0.04; fewer than 50 cells in well: enough cells in well; Call: inactive
Gpha2 | Tnf reporter robust z-score: 0.81; fewer than 50 cells in well: enough cells in well; Call: inactive
Ikbkg | Tnf reporter robust z-score: -0.91; fewer than 50 cells in well: enough cells in well; Call: inactive
Or8g18 | Tnf reporter robust z-score: -0.54; fewer than 50 cells in well: enough cells in well; Call: inactive
Gas6 | Tnf reporter robust z-score: 2.16; fewer than 50 cells in well: enough cells in well; Call: inactive
Peg3 | Tnf reporter robust z-score: -1.09; fewer than 50 cells in well: enough cells in well; Call: inactive
Mylk2 | fewer than 50 cells in well: fewer than 50 cells per well; well left out of calls; Call: inactive
Egfbp2 | Tnf reporter robust z-score: 0.79; fewer than 50 cells in well: enough cells in well; Call: inactive

Entries listed so far whose gene name starts with P or p (2):
Pcdhb10 | Tnf reporter robust z-score: -0.04; fewer than 50 cells in well: enough cells in well; Call: inactive
Peg3 | Tnf reporter robust z-score: -1.09; fewer than 50 cells in well: enough cells in well; Call: inactive

Additional records:
Hoxc6 | Tnf reporter robust z-score: -0.75; fewer than 50 cells in well: enough cells in well; Call: inactive
Or4x6 | Tnf reporter robust z-score: 2.92; fewer than 50 cells in well: enough cells in well; Call: inactive
Skp2 | Tnf reporter robust z-score: -0.01; fewer than 50 cells in well: enough cells in well; Call: inactive
Ece1 | Tnf reporter robust z-score: -0.19; fewer than 50 cells in well: enough cells in well; Call: inactive
Arap1 | Tnf reporter robust z-score: 0.55; fewer than 50 cells in well: enough cells in well; Call: inactive
Mfrp | Tnf reporter robust z-score: -0.64; fewer than 50 cells in well: enough cells in well; Call: inactive
Or4n4b | fewer than 50 cells in well: fewer than 50 cells per well; well left out of calls; Call: inactive
Grin3a | Tnf reporter robust z-score: -1.51; fewer than 50 cells in well: enough cells in well; Call: active
Thrsp | Tnf reporter robust z-score: -0.48; fewer than 50 cells in well: enough cells in well; Call: inactive
Glmp | Tnf reporter robust z-score: -0.52; fewer than 50 cells in well: enough cells in well; Call: inactive
Ccdc54 | Tnf reporter robust z-score: -1.25; fewer than 50 cells in well: enough cells in well; Call: inactive
